The values that follow come from patent US20170335004A1.

No constants are given. Whether binding was seen depends on the method and setting.

The target in this test is IGF. The test is described as follows: ELISA of purified hFab 6.5 on a panel of coated antigens, absorbance 450 nm.

B1: hFab 6.5 (Fab, V domains shown)
VH: QVQLVQSGGGLVKPGGSLRLSCAASGFTFTSYAMSWVRQAPGKGLEWVSAISGSGGSTYYADSVKGRFTISRDNPKNTLYLQMNSLRAEDTAVYYCARVRANYYYGMDVWGQGTLVTVSS
VL: LTQSPGTLSLSPGERATLSCRASQSVSSSTLAWYQQKPGQTPRLLIYGASTRATGIPARFSGSGSGTDFTLTISRLEPEDFAVYYCQQYGSSRLTFGGGTKVEIKR
As to B1, the binding result is “no binding (tested: 10 ug/ml)”.
